Among the data in paper PMC8100072 are binding values, retold here.

Chains of the proteins cited; added tags and fusions are not shown.
UniProt O81445: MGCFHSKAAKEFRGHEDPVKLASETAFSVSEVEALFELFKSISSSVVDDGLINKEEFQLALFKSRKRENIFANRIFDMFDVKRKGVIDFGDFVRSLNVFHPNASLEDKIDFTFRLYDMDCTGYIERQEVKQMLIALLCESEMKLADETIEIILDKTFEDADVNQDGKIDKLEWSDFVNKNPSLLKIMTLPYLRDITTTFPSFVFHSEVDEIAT

The assay concerns the target Calcineurin B-like protein 1 (CBL1), BiFC positive control (UniProt O81445). Briefly: split reporter; BiFC with YFP^N-ter(1-173aa) and YFP^C-ter(156-239aa) fusions coexpressed in onion epidermal cells by Agrobacterium-mediated transformation; confocal microscopy 48 h after transformation; unstressed.

These are yes or no findings as the source states them, for the method shown. In cells and extracts the contact can be indirect. Some results given as binding are weak or reduced against the parent protein; the word gives no strength.

B1: CIPK24, BiFC positive control (protein, UniProt Q9LDI3 1-446)
chain: MTKKMRRVGKYEVGRTIGEGTFAKVKFARNTDTGDNVAIKIMAKSTILKNRMVDQIKREISIMKIVRHPNIVRLYEVLASPSKIYIVLEFVTGGELFDRIVHKGRLEESESRKYFQQLVDAVAHCHCKGVYHRDLKPENLLLDTNGNLKVSDFGLSALPQEGVELLRTTCGTPNYVAPEVLSGQGYDGSAADIWSCGVILFVILAGYLPFSETDLPGLYRKINAAEFSCPPWFSAEVKFLIHRILDPNPKTRIQIQGIKKDPWFRLNYVPIRAREEEEVNLDDIRAVFDGIEGSYVAENVERNDEGPLMMNAFEMITLSQGLNLSALFDRRQDFVKRQTRFVSRREPSEIIANIEAVANSMGFKSHTRNFKTRLEGLSSIKAGQLAVVIEIYEVAPSLFMVDVRKAAGETLEYHKFYKKLCSKLENIIWRATEGIPKSEILRTITF
Regarding B1, the binding result is recorded as “binds”.
